Data taken from the supplement of paper PMC7646827.
Structures can show the parent of a compound that is named as a salt. Many values rest on one well or one pass, so single values are uncertain.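 All cells are established human bladder cancer lines, one of them grown from a patient-derived xenograft. Viability was read by a luminescent ATP assay as percent inhibition versus vehicle over a seven-point dilution series; the paper calls scores above 59 very active, 30–59 active, 21–29 semi-active, 9–20 low active and below 9 inactive.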

How the values were obtained:
Assay in all cases: drug sensitivity score DSS3 (score 0-100); higher = more sensitive; extreme values may be limits of the assay
Settings in all cases: culture: 3D, ultra-low attachment; treatment time: 5 days
SW780 = system: SW780
UM-UC-5 = system: UM-UC-5
SCaBER = system: SCaBER
J82 = system: J82
5637 = system: 5637
UM-UC-1 = system: UM-UC-1
UM-UC-14 = system: UM-UC-14
UM-UC-12 = system: UM-UC-12
UM-UC-9 = system: UM-UC-9
UM-UC-15 = system: UM-UC-15
UM-UC-6 = system: UM-UC-6
TCCSUP = system: TCCSUP
T-24 = system: T-24
BC8149 = system: BC8149
UM-UC-3 = system: UM-UC-3
UM-UC-18 = system: UM-UC-18
UM-UC-17 = system: UM-UC-17

Row | SMILES | drug sensitivity score DSS3 (SW780) | drug sensitivity score DSS3 (UM-UC-5) | drug sensitivity score DSS3 (SCaBER) | drug sensitivity score DSS3 (J82) | drug sensitivity score DSS3 5637 | drug sensitivity score DSS3 (UM-UC-1) | drug sensitivity score DSS3 (UM-UC-14) | drug sensitivity score DSS3 (UM-UC-12) | drug sensitivity score DSS3 (UM-UC-9) | drug sensitivity score DSS3 (UM-UC-15) | drug sensitivity score DSS3 (UM-UC-6) | drug sensitivity score DSS3 (TCCSUP) | drug sensitivity score DSS3 (T-24) | drug sensitivity score DSS3 (BC8149) | drug sensitivity score DSS3 (UM-UC-3) | drug sensitivity score DSS3 (UM-UC-18) | drug sensitivity score DSS3 (UM-UC-17)
1 | COCCOc1cnc2ccn([C@H](C)c3nnc4c(F)cc(-c5cnn(C)c5)cn34)c(=O)c2c1 [AMG 337] (max dose 10000 nM) | 0 | 0 | 0 | 0 | 0 | 0 | 0 | 0 | 0 | 0 | 0 | 0 | 0 | 0 | 0 | 0 | 0
2 | N#Cc1ccc(COC[C@H]2O[C@@H](n3c(NCc4ccc(Cl)c(Cl)c4)nc4c(N)ncnc43)[C@H](O)[C@@H]2O)cc1 (max dose 10000 nM) | 0.627 | 1.21 | 2.42 | 1.41 | 2.99 | 2.12 | 1.17 | 2.85 | 1.35 | 0 | 2.16 | 8.06 | 0.608 | 12 | 0.718 | 3.57 | 0
3 | CN1CCN(CCOc2cc(OC3CCOCC3)c3c(Nc4c(Cl)ccc5c4OCO5)ncnc3c2)CC1 [AZD0530, Saracatinib (AZD0530)] (max dose 10000 nM) | 1.92 | 0 | 6.15 | 0 | 3.76 | 1.74 | 2.2 | 20.7 | 0 | 0.24 | 2.58 | 11.2 | 16.2 | 0.593 | 3.36 | 2.7 | 0
4 | CN(C)C1CCN(C(=O)c2ccc(NC(=O)Nc3ccc(-c4nc(N5CCOCC5)nc(N5CCOCC5)n4)cc3)cc2)CC1 [Gedatolisib] (max dose 2000 nM) | 53.8 | 44.4 | 27.3 | 0.68 | 42.6 | 56.2 | 3.4 | 4.84 | 34.9 | 4.2 | 12.4 | 57.6 | 1.99 | 44.4 | 20.9 | 21.6 | 29.6
5 | CN1CCC(NC(=O)c2cc(-c3c(O)cc(O)cc3Oc3ccc([N+](=O)[O-])cc3)on2)CC1 [NMS-E973] (max dose 10000 nM) | 0 | 8.92 | 13.1 | 0 | 10.5 | 9.86 | 0.559 | 13.4 | 9.86 | 12.9 | 0 | 18.7 | 26.1 | 26.5 | 29.4 | 14.3 | 6.33
6 | C=CC(=O)Nc1cc(Nc2nccc(-n3cc(CN(C)C)c(-c4ccccc4)n3)n2)c(OC)cc1N1CCOCC1 (max dose 10000 nM) | 0 | 0 | 1.02 | 0 | 0.0219 | 0 | 0.0926 | 0.968 | 0 | 0 | 0 | 0.217 | 0 | 0 | 3.41 | 0.224 | 0
7 | Nc1[nH]nc2nnc(-c3c(-c4ccccc4)nn4ccccc34)cc12 (max dose 10000 nM) | 0 | 0 | 0 | 0 | 1.83 | 23.5 | 25.3 | 0.306 | 0.551 | 0 | 11.1 | 37.5 | 0 | 4.45 | 4.35 | 0 | 15.6
8 | C#Cc1cccc(Nc2ncnc3cc(OCCOC)c(OCCOC)cc23)c1 [Erlotinib, Erlotinib HCl (OSI-744)] (max dose 10000 nM) | 0.185 | 0 | 5.13 | 0 | 15.4 | 0.144 | 3.37 | 1.41 | 0.788 | 0 | 8.11 | 9.9 | 1.17 | 0 | 4.09 | 4.56 | 4.75
9 | NC(=O)c1noc([C@H](CCCC2CCCCC2)CC(=O)NO)n1 (max dose 10000 nM) | 0 | 0 | 0 | 0 | 1.39 | 0 | 0 | 0.365 | 0 | 0 | 0.00428 | 0.0852 | 2.12 | 1.49 | 0.94 | 2.96 | 0
10 | O=C(O)CSc1cc(NS(=O)(=O)c2ccc(Br)cc2)c2ccccc2c1O [UMI-77] (max dose 10000 nM) | 0 | 0 | 0 | 0 | 0 | 0 | 0.159 | 0 | 0 | 0 | 0.955 | 0 | 0 | 0 | 0 | 0 | 0
11 | CC(=O)O[C@]1(C(C)=O)CC[C@H]2[C@@H]3C[C@H](C)C4=CC(=O)CC[C@]4(C)[C@H]3CC[C@@]21C [Medroxyprogesterone acetate] (max dose 10000 nM) | 0 | 0 | 0 | 0 | 0 | 0 | 0 | 0 | 0 | 0 | 0 | 0 | 0 | 0 | 0 | 0 | 0
12 | Nc1nc2[nH]cc(CCc3ccc(C(=O)N[C@@H](CCC(=O)O)C(=O)O)cc3)c2c(=O)[nH]1 [Pemetrexed] (max dose 10000 nM) | 0 | 0 | 0 | 0 | 12.1 | 5.38 | 5.7 | 0 | 1.04 | 0 | 0 | 15.5 | 0 | 0 | 0 | 23.1 | 26.5
13 | COc1cc(Nc2ncc(F)c(Nc3ccc4c(n3)NC(=O)C(C)(C)O4)n2)cc(OC)c1OC [R406 (free base)] (max dose 10000 nM) | 0 | 0 | 0 | 0 | 0 | 0 | 0.0242 | 0 | 0 | 0 | 0 | 0.0461 | 0.492 | 0 | 0 | 0 | 0
14 | COC(=O)c1ccc2c(c1)NC(=O)/C2=C(\Nc1ccc(N(C)C(=O)CN2CCN(C)CC2)cc1)c1ccccc1 [Nintedanib (BIBF 1120)] (max dose 10000 nM) | 0 | 0 | 8.46 | 0.511 | 3.33 | 0 | 1.2 | 18.2 | 0 | 0 | 0.522 | 1.81 | 16.7 | 0 | 7.59 | 2.66 | 0
15 | CCN(CC)CCCC(C)Nc1ccnc2cc(Cl)ccc12 (stereo unspecified) [Chloroquine Phosphate] (max dose 10000 nM) | 0 | 0 | 0 | 0 | 0 | 0 | 0 | 0 | 0 | 0 | 0 | 0 | 0 | 0 | 0 | 0 | 0
16 | Cc1nc(N)sc1-c1ccnc(Nc2ccc(N3CCOCC3)cc2)n1 [CYC116] (max dose 10000 nM) | 0 | 0 | 1.74 | 1.27 | 4.26 | 1.42 | 4.51 | 1.14 | 0 | 0 | 0 | 12.6 | 1.3 | 7.78 | 1.41 | 0.729 | 0
17 | C=C1CCC[C@]2(C)C=C3OC(=O)C(C)=C3C[C@@H]12 [Atractylenolide I] (max dose 10000 nM) | 0 | 0 | 0 | 0 | 0 | 0.0409 | 0 | 0.294 | 0 | 0 | 0 | 0 | 0.372 | 0.135 | 0 | 0.989 | 0
18 | CCCCc1ncc(/C=C(\Cc2cccs2)C(=O)O)n1Cc1ccc(C(=O)O)cc1 [Eprosartan Mesylate] (max dose 10000 nM) | 0 | 0 | 0 | 0 | 0 | 0 | 0 | 0 | 0 | 0 | 0 | 0 | 0.103 | 0 | 0 | 0 | 0
19 | Cn1ncnc1[C@H]1c2n[nH]c(=O)c3cc(F)cc(c23)N[C@@H]1c1ccc(F)cc1 [talazoparib] (max dose 10000 nM) | 0 | 0.681 | 0 | 4.29 | 35 | 16.2 | 0 | 13.8 | 0.0754 | 0 | 23.7 | 59.4 | 0 | 32.3 | 5.5 | 15.6 | 14.9
20 | CC(=O)O[C@@]12CO[C@@H]1C[C@H](O)[C@@]1(C)C(=O)[C@H](O)C3=C(C)[C@@H](OC(=O)[C@H](O)[C@@H](NC(=O)OC(C)(C)C)c4ccccc4)C[C@@](O)([C@@H](OC(=O)c4ccccc4)[C@H]21)C3(C)C [Docetaxel] (max dose 10000 nM) | 62.6 | 0 | 34.7 | 12.3 | 80.5 | 55.9 | 64.1 | 49.4 | 19.9 | 0 | 66.4 | 82.4 | 0 | 50.5 | 28.4 | 42.6 | 78.9
21 | Cc1c(NC(=O)OC[C@@H]2COCCN2)cn2ncnc(Nc3ccc4c(cnn4Cc4cccc(F)c4)c3)c12 [AC480] (max dose 10000 nM) | 0 | 0 | 3.39 | 0 | 1.46 | 0 | 0 | 0 | 0 | 0 | 0.85 | 0.198 | 0 | 0 | 0.29 | 0 | 0
22 | COc1cc2ncnc(Nc3ccc(F)c(Cl)c3)c2cc1NC(=O)/C=C/CN1CCCCC1 (max dose 10000 nM) | 0.947 | 0 | 28.7 | 0 | 33.9 | 17.8 | 13.8 | 44.9 | 0 | 6.99 | 29.3 | 41.2 | 0 | 10.6 | 14.4 | 41.5 | 2.39
23 | COc1ccc(-c2nc3cc(C4=NNC(=O)CC4C)ccc3[nH]2)cc1 (stereo unspecified) [Pimobendan] (max dose 10000 nM) | 0 | 0 | 0 | 0 | 0 | 0 | 0 | 0 | 0 | 4.49 | 0.396 | 0.398 | 0 | 0.563 | 0.807 | 0.604 | 0.643

Quoted at random: 2 entries already listed
Row | SMILES | drug sensitivity score DSS3 (SW780) | drug sensitivity score DSS3 (UM-UC-5) | drug sensitivity score DSS3 (SCaBER) | drug sensitivity score DSS3 (J82) | drug sensitivity score DSS3 5637 | drug sensitivity score DSS3 (UM-UC-1) | drug sensitivity score DSS3 (UM-UC-14) | drug sensitivity score DSS3 (UM-UC-12) | drug sensitivity score DSS3 (UM-UC-9) | drug sensitivity score DSS3 (UM-UC-15) | drug sensitivity score DSS3 (UM-UC-6) | drug sensitivity score DSS3 (TCCSUP) | drug sensitivity score DSS3 (T-24) | drug sensitivity score DSS3 (BC8149) | drug sensitivity score DSS3 (UM-UC-3) | drug sensitivity score DSS3 (UM-UC-18) | drug sensitivity score DSS3 (UM-UC-17)
14 | COC(=O)c1ccc2c(c1)NC(=O)/C2=C(\Nc1ccc(N(C)C(=O)CN2CCN(C)CC2)cc1)c1ccccc1 [Nintedanib (BIBF 1120)] (max dose 10000 nM) | 0 | 0 | 8.46 | 0.511 | 3.33 | 0 | 1.2 | 18.2 | 0 | 0 | 0.522 | 1.81 | 16.7 | 0 | 7.59 | 2.66 | 0
17 | C=C1CCC[C@]2(C)C=C3OC(=O)C(C)=C3C[C@@H]12 [Atractylenolide I] (max dose 10000 nM) | 0 | 0 | 0 | 0 | 0 | 0.0409 | 0 | 0.294 | 0 | 0 | 0 | 0 | 0.372 | 0.135 | 0 | 0.989 | 0
